From the supplement of paper PMC11348887
Counter-ions that a name gives are not always drawn. This is one part of the list. Small differences around the control level are noise.

Each compound was assayed on hPSC-derived cortical neurons (WA09) (assay: nucleus area z-score vs screen plate; higher = larger nuclei (more mature)). Conditions: 5 µM; treatment: days 7-14 after plating, readout day 21.

SMILES | nucleus area z-score
CC1(C)[C@H](C(=O)O)N2C(=O)C[C@H]2S1(=O)=O [Sulbactam sodium] | 0.393
Cc1cc2c(F)c(Oc3ncnn4cc(OC[C@@H](C)OC(=O)[C@H](C)N)c(C)c34)ccc2[nH]1 | 2.55
CC(C)(C)C(=O)OCOP(=O)(COCCn1cnc2c(N)ncnc21)OCOC(=O)C(C)(C)C [Adefovir Dipivoxil] | -13.2
COC(=O)CC[C@H](NC(=O)[C@H](CC(=O)OC)NC(=O)OCc1ccccc1)C(=O)N[C@H](C(=O)N[C@@H](CC(=O)OC)C(=O)CF)C(C)C | 0.33
CCCC1O[C@@H]2C[C@H]3[C@@H]4CCC5=CC(=O)C=C[C@]5(C)[C@H]4[C@@H](O)C[C@]3(C)[C@]2(C(=O)CO)O1 (some centres undefined) [Budesonide] | 1.06
CCOC(=O)[C@H](CCc1ccccc1)N[C@H]1CS[C@H](c2cccs2)CN(CC(=O)O)C1=O [Temocapril HCl] | -0.0136
CN1CCC[C@@H]1CCO[C@](C)(c1ccccc1)c1ccc(Cl)cc1 [Clemastine Fumarate] | -1.92
CN(CCOc1ccc(CC2SC(=O)NC2=O)cc1)c1ccccn1 (centres undefined) [Rosiglitazone maleate] | 0.288
Brc1ccc([C@H]2CN3CCSC3=N2)cc1 [(-)-p-Bromotetramisole Oxalate] | -0.02
O=c1[nH]cnc2c1ncn2[C@@H]1O[C@H](CO)[C@@H](O)[C@H]1O [Inosine] | 0.199
C=CC(=O)Nc1cc(Nc2nccc(-c3c[nH]c4ccccc34)n2)c(OC)cc1N(C)CCN(C)C | -11.2
CN1C2CCCC1CC(NC(=O)c1nn(C)c3ccccc13)C2 (centres undefined) [Granisetron HCl] | -1.74
CCN(Cc1ccncc1)C(=O)C(CO)c1ccccc1 (centres undefined) [Tropicamide] | 0.738
COC(=O)N(C)c1c(N)nc(-c2nn(Cc3ccccc3F)c3ncccc23)nc1N [Riociguat (BAY 63-2521)] | 0.367
COC(=O)Nc1ccc(-c2nc(N3CCOCC3)c3cnn(C4CCN(C(=O)OC)CC4)c3n2)cc1 | -0.335
O=C(NC[C@H](O)CN1CCc2ccccc2C1)c1ccnc(NC2CCC2)c1 | -0.567
O=c1cc(N2CCOCC2)oc2c(-c3cccc4c3sc3ccccc34)cccc12 | -1.07
CC[C@]1(O)C[C@H]2CN(CCc3c([nH]c4ccccc34)[C@@](C(=O)OC)(c3cc4c(cc3OC)N(C=O)[C@H]3[C@@](O)(C(=O)OC)[C@H](OC(C)=O)[C@]5(CC)C=CCN6CC[C@]43[C@@H]65)C2)C1 [Vincristine] | -7.77
CC(=O)N[C@@H](CS)C(=O)O [Acetylcysteine] | 0.0246
CN(C)CCCN1c2ccccc2Sc2ccc(Cl)cc21 [Chlorpromazine HCl] | -0.749

SMILES | nucleus area z-score
O=C1C2CC3CC1CC(O)(C3)C2 [Idramantone] | 0.678
CCOC(=O)c1ccc(OC(=O)CCCCCNC(=N)N)cc1 [Gabexate Mesylate] | -0.29
COC(=O)N[C@@H](C)CNc1nccc(-c2cn(C(C)C)nc2-c2cc(Cl)cc(NS(C)(=O)=O)c2F)n1 | 0.632
COC(=O)c1ccc2c(c1)NC(=O)/C2=C(\Nc1ccc(N(C)C(=O)CN2CCN(C)CC2)cc1)c1ccccc1 [Nintedanib (BIBF 1120)] | -3.72
COc1cc2nc(N3CCN(C(=O)c4ccco4)CC3)nc(N)c2cc1OC [Prazosin HCl] | 1.39
O=C(O)c1ccc(CN2CCC(CN[C@@H]3C[C@H]3c3ccccc3)CC2)cc1 | 2.38
C[C@]12CC[C@@H]3c4ccc(O)cc4CC[C@H]3[C@@H]1CCC2=O [Estrone] | 0.511
CO[C@H]1C[C@@H]2CC[C@@H](C)[C@@](O)(O2)C(=O)C(=O)N2CCCC[C@H]2C(=O)O[C@H]([C@H](C)C[C@@H]2CC[C@@H](OC(=O)C(C)(CO)CO)[C@H](OC)C2)CC(=O)[C@H](C)/C=C(\C)[C@@H](O)[C@@H](OC)C(=O)[C@H](C)C[C@H](C)/C=C/C=C/C=C/1C | -0.347
O=c1c(O)c(-c2ccc(O)cc2O)oc2cc(O)cc(O)c12 [Morin Hydrate] | -0.495
N=C1NC(=O)/C(=C/c2ccc(O)cc2)S1 [Mirin] | 2.61
COc1ccc(-c2ccc3c(N4CCOCC4)nc(N4C[C@@H](C)O[C@@H](C)C4)nc3n2)cc1CO | 1.17
COc1cc2ncnc(Nc3ccc(F)c(Cl)c3)c2cc1NC(=O)/C=C/CN1CCCCC1 | -0.354
C=CC(=O)Nc1ccc2ncnc(Nc3cccc(Br)c3)c2c1 | 0.185
O=C(O)Cn1nnc(-c2cc(N3CCC(Oc4cc(F)ccc4Br)CC3)no2)n1 | -0.122
OCC(CO)N[C@H]1C[C@](O)(CO)[C@@H](O)[C@H](O)[C@H]1O [Voglibose] | 3.54
CN(C)CC(c1ccc(O)cc1)C1(O)CCCCC1 (centres undefined) [Desvenlafaxine Succinate] | 0.879
C[C@@H]1CCO[C@H]2Cn3cc(C(=O)NCc4ccc(F)cc4F)c(=O)c(O)c3C(=O)N12 | 0.291
COc1cc2nccc(Oc3ccc(NC(=O)NC4CC4)c(Cl)c3)c2cc1C(N)=O [Lenvatinib (E7080)] | 0.315
CC(=O)OCC(CCn1cnc2cnc(N)nc21)COC(C)=O [Famciclovir] | 0.217

Three entries drawn at random from those above:
SMILES | nucleus area z-score
O=C(O)Cn1nnc(-c2cc(N3CCC(Oc4cc(F)ccc4Br)CC3)no2)n1 | -0.122
O=C1C2CC3CC1CC(O)(C3)C2 [Idramantone] | 0.678
COc1cc2ncnc(Nc3ccc(F)c(Cl)c3)c2cc1NC(=O)/C=C/CN1CCCCC1 | -0.354
